According to patent US20200181278A1 (MITSUBISHI TANABE PHARMA, published 2020):
These are yes or no findings as the source states them, for the method shown. Some results given as binding are weak or reduced against the parent protein; the word gives no strength.

T1: human CD138 (syndecan-1) on cells (human) (UniProt P18827)
T1 sequence: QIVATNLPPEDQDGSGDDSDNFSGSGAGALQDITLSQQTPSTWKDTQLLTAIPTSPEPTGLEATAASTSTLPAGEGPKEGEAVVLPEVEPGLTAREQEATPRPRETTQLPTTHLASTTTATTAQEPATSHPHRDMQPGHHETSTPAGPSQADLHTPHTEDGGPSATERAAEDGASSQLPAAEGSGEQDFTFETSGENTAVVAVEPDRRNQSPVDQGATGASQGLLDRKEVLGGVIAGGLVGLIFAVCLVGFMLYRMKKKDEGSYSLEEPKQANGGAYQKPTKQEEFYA


Columns and labels:
[1] = target: T1, human CD138 (syndecan-1) on cells (human); assay: FACS on KMS-11 multiple myeloma cells (endogenous human CD138)
[2] = target: T1, human CD138 (syndecan-1) on cells (human); assay: FACS on RT112/84 bladder cancer cells (endogenous human CD138)

Row | binding [1] | binding [2] | Binder
1 | binds | binds | F6 f1ka-rep (antibody, V domains shown) VH: QVQLQQSGAEVVKPGASVKLSCKASGYTFTSYYLYWVKKAPGQGLDWIGEIYPRSGGTNINEKFLSRVTLTADTSTSTAYMDLSSLTSEDTAVYYCTRSLLYWGQGTTLTVSS VL: DVVMTQTPLSLSVTPGQPASISCKSSQSLLASDGKTYLNWLLQRPGQSPKRLIYLVSKLDSGVPNRFSGSGSGTDFTLQISRVEAEDVGLYYCMQGAHFPFTFGGGTKVEIKR
2 | binds | binds | F6 cka-rep (antibody, V domains shown) VH: QVQLVQSGAEVVKPGASVKLSCKASGYTFTSYYLYWVKKAPGQGLDWIGEIYPRSGGTNINEKFLSRVTLTADTSTSTAYLELSSLTSEDTAVYYCTRSLLYWGQGTTLTVSS VL: DVVMTQTPLSLSVTPGQPASISCKSSQSLLASDGKTYLNWLLQRPGQSPKRLIYLVSKLDSGVPNRFSGSGSGTDFTLQISRVEAEDVGLYYCMQGAHFPFTFGGGTKVEIKR
3 | binds | binds | F6 f2kf-rep (antibody, V domains shown) VH: QVQLQQSGAEVVKPGASVKLSCKASGYTFTSYYLYWVKKAPGQGLDWIGEIYPRSGGTNINEKFLSRVTITADESTSTVYMQLSSLTSEDSAVYYCTRSLLYWGQGTTLTVSS VL: DVVMTQSPLSLSVTLGQPASISCKSSQSLLASDGKTYLNWLQQRPGQSPRRLIYLVSKLDSGVPNRFSGSGSGTDFTLQISRVEAEDVGLYYCWQGAHFPFTFGSGTKLEIKR
4 | binds | binds | F6 cks-rep (antibody, V domains shown) VH: QVQLVQSGAEVVKPGASVKLSCKASGYTFTSYYLYWVKKAPGQGLDWIGEIYPRSGGTNINEKFLSRVTLTADTSTSTAYLELSSLTSEDTAVYYCTRSLLYWGQGTTLTVSS VL: DVVMTQTPLSLSVTPGQPASISCKSSQSLLASDGKTYLNWLLQRPGQSPKRLIYLVSKLDSGVPNRFSGSGSGTDFTLQISRVEAEDVGLYYCWQGAHFPFTFGSGTKLEIKR
5 | binds | binds | F6 aks-rep (antibody, V domains shown) VH: QVQLVQSGAEVVKPGASVKLSCKASGYTFTSYYLYWVKKAPGQGLDWIGEIYPRSGGTNYAEKFQGRVTLTADTSTSTAYLELSSLTSEDTAVYYCTRSLLYWGQGTTLTVSS VL: DVVMTQTPLSLSVTPGQPASISCKSSQSLLASDGKTYLNWLLQRPGQSPKRLIYLVSKLDSGVPNRFSGSGSGTDFTLQISRVEAEDVGLYYCWQGAHFPFTFGSGTKLEIKR
6 | binds | binds | F6 f1kf-rep (antibody, V domains shown) VH: QVQLQQSGAEVVKPGASVKLSCKASGYTFTSYYLYWVKKAPGQGLDWIGEIYPRSGGTNINEKFLSRVTLTADTSTSTAYMDLSSLTSEDTAVYYCTRSLLYWGQGTTLTVSS VL: DVVMTQSPLSLSVTLGQPASISCKSSQSLLASDGKTYLNWLQQRPGQSPRRLIYLVSKLDSGVPNRFSGSGSGTDFTLQISRVEAEDVGLYYCWQGAHFPFTFGSGTKLEIKR
7 | binds | binds | F6 akf-rep (antibody, V domains shown) VH: QVQLVQSGAEVVKPGASVKLSCKASGYTFTSYYLYWVKKAPGQGLDWIGEIYPRSGGTNYAEKFQGRVTLTADTSTSTAYLELSSLTSEDTAVYYCTRSLLYWGQGTTLTVSS VL: DVVMTQSPLSLSVTLGQPASISCKSSQSLLASDGKTYLNWLQQRPGQSPRRLIYLVSKLDSGVPNRFSGSGSGTDFTLQISRVEAEDVGLYYCWQGAHFPFTFGSGTKLEIKR
8 | binds | binds | F6 ckf-rep (antibody, V domains shown) VH: QVQLVQSGAEVVKPGASVKLSCKASGYTFTSYYLYWVKKAPGQGLDWIGEIYPRSGGTNINEKFLSRVTLTADTSTSTAYLELSSLTSEDTAVYYCTRSLLYWGQGTTLTVSS VL: DVVMTQSPLSLSVTLGQPASISCKSSQSLLASDGKTYLNWLQQRPGQSPRRLIYLVSKLDSGVPNRFSGSGSGTDFTLQISRVEAEDVGLYYCWQGAHFPFTFGSGTKLEIKR
9 | binds | binds | F6 f1ks-rep (antibody, V domains shown) VH: QVQLQQSGAEVVKPGASVKLSCKASGYTFTSYYLYWVKKAPGQGLDWIGEIYPRSGGTNINEKFLSRVTLTADTSTSTAYMDLSSLTSEDTAVYYCTRSLLYWGQGTTLTVSS VL: DVVMTQTPLSLSVTPGQPASISCKSSQSLLASDGKTYLNWLLQRPGQSPKRLIYLVSKLDSGVPNRFSGSGSGTDFTLQISRVEAEDVGLYYCWQGAHFPFTFGSGTKLEIKR
